Data as given in PubChem BioAssay AID1224826 (NIAID, 2016)

Aim: 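Genes that change LPS-induced Tnf promoter activity in mouse macrophages when knocked down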 (primary screen)
Cell system: RAW264.7 G9 macrophages from mouse bearing reporters for p65 (GFP) and the Tnf promoter (mCherry)
Reagent: siRNA pool against mouse genes, 100 nM
Timing: 16 h of LPS stimulation, after 2 days of siRNA transfection
Treatment: bacterial lipopolysaccharide (Salmonella minnesota R595), 10 ng/ml
Measured: 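Imaged Tnf reporter mCherry in nuclei, minus background, normalised per plate to the median and expressed as robust z-scores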
Scale: Tnf reporter robust z-score: higher = stronger Tnf promoter reporter signal after LPS
Call rule: 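a well counts as active at a score of -1.3 or below (Tlr4 knock-down control median) or above 3 (raised signal); controls and wells holding fewer than 50 cells are excluded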
Calls: active = Tnf reporter clearly lowered or raised; inactive = no clear change in Tnf reporter
This is a random part of about 17,000 reagents tested. About 1,110 of them (6.6%) count as active. 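Active means lowered or raised reporter signal; replicate intensities are raw and not normalised per plate.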 Unmarked entries are inactive. Not all columns of the deposit are shown.

Ces2a (carboxylesterase 2A)
- Tnf reporter robust z-score: -0.5
- fewer than 50 cells in well: enough cells in well

Agfg1 (ArfGAP with FG repeats 1)
- Tnf reporter robust z-score: -0.41
- fewer than 50 cells in well: enough cells in well

Mfap4 (microfibrillar-associated protein 4)
- Tnf reporter robust z-score: 1.3
- fewer than 50 cells in well: enough cells in well

Shpk (sedoheptulokinase)
- Tnf reporter robust z-score: -0.59
- fewer than 50 cells in well: enough cells in well

Klra21 (killer cell lectin-like receptor subfamily A, member 21)
- Tnf reporter robust z-score: -0.83
- fewer than 50 cells in well: enough cells in well

Nipsnap2 (nipsnap homolog 2)
- Tnf reporter robust z-score: -0.29
- fewer than 50 cells in well: enough cells in well

Fstl5 (follistatin-like 5)
- Tnf reporter robust z-score: -0.24
- fewer than 50 cells in well: enough cells in well

Pithd1
- Tnf reporter robust z-score: 1.29
- fewer than 50 cells in well: enough cells in well

Zfp593 (zinc finger protein 593)
- Tnf reporter robust z-score: -0.08
- fewer than 50 cells in well: enough cells in well

Gripap1 (GRIP1 associated protein 1)
- Tnf reporter robust z-score: 1.25
- fewer than 50 cells in well: enough cells in well

Tcirg1
- Tnf reporter robust z-score: -0.69
- fewer than 50 cells in well: enough cells in well

Poldip2 (polymerase (DNA-directed), delta interacting protein 2)
- fewer than 50 cells in well: fewer than 50 cells per well; well left out of calls

Mybl2 (Myb proto-oncogene like 2)
- Tnf reporter robust z-score: -1.28
- fewer than 50 cells in well: enough cells in well

Lpcat1 (lysophosphatidylcholine acyltransferase 1)
- Tnf reporter robust z-score: 0.39
- fewer than 50 cells in well: enough cells in well

Sorted by “Tnf reporter robust z-score” (ascending): some entries from above
Tcirg1
- Tnf reporter robust z-score: -0.69
- fewer than 50 cells in well: enough cells in well

Gripap1 (GRIP1 associated protein 1)
- Tnf reporter robust z-score: 1.25
- fewer than 50 cells in well: enough cells in well
